Data published in patent US7718693B2, “Receptor antagonists and their methods of use” (Glaxo Group Limited, priority 2006, dated 2010).
Some of these results come from one statement about several compounds together.

Target: T1, human recombinant P2X7 receptors (Homo sapiens, UniProt Q99572)
T1 construct: expressed in transfected cells; host or cells: HEK293
T1 sequence (Q99572 1-595): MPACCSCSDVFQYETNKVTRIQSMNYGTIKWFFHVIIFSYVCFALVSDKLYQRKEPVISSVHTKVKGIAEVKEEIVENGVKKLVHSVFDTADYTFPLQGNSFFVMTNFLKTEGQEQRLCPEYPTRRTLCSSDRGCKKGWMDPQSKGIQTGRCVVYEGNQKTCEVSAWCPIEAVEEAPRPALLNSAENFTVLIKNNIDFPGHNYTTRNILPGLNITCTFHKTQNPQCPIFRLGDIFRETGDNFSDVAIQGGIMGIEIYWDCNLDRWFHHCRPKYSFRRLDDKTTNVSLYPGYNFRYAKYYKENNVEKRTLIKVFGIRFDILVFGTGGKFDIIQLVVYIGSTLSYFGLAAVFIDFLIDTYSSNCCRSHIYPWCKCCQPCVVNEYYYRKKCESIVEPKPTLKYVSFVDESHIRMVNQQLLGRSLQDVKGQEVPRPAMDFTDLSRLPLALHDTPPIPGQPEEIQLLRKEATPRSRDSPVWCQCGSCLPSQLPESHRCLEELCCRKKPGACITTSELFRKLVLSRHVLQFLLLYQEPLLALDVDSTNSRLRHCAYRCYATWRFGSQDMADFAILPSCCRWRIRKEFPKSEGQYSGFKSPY
Test: Fluorescent Imaging Plate Reader (FLIPR) Ca Assay
Format: cell-based
Conditions: HEK293 cells expressing human recombinant P2X7; BzATP 60 μM; tested in FLIPR and/or ethidium assay

Structure (SMILES) | pIC50 values in the FLIPR Ca Assay (blocking BzATP responses)
CCN1C(=O)CC[C@H]1C(=O)NCc1ccc(F)c(Cl)c1Cl [Example E65, N-[(2,3-dichloro-4-fluorophenyl)methyl]-1-ethyl-5-oxoprolinamide] | > 4.7
CCN1C(=O)CC[C@H]1C(=O)NCc1c(C)cc(C)cc1C [Example E66, 1-ethyl-5-oxo-N-[(2,4,6-trimethylphenyl)methyl]-prolinamide] | > 4.7
CCN1C(=O)CC[C@H]1C(=O)NCc1cccc(F)c1F [Example E67, N-[(2,3-difluorophenyl)methyl]-1-ethyl-5-oxoprolinamide] | > 4.7
CCN1C(=O)CC[C@H]1C(=O)NCc1cc(Cl)cc(Cl)c1 [Example E68, N-[(3,5-dichlorophenyl)methyl]-1-ethyl-5-oxoprolinamide] | > 4.7
CCN1C(=O)CC[C@H]1C(=O)NCc1cccc(Cl)c1F [Example E69, N-[(3-chloro-2-fluorophenyl)methyl]-1-ethyl-5-oxoprolinamide] | > 4.7
CCN1C(=O)CCC1C(=O)NCc1ccc(F)c(F)c1Cl (stereo not drawn) [Example E78, N-[(2-chloro-3,4-difluorophenyl)methyl]-1-ethyl 5-oxoprolinamide] | > 4.7
CCN1C(=O)CCC1C(=O)NCc1ccc(Cl)cc1C (stereo not drawn) [Example E79, N-[(4-chloro-2-methylphenyl)methyl]-1-ethyl 5-oxoprolinamide] | > 4.7
Cc1ccc(Cl)cc1CNC(=O)[C@@H]1CCC(=O)N1C [Example E89, N-[(5-chloro-2-methylphenyl)methyl]-1-methyl-5-oxoprolinamide] | > 4.7
O=C(NCc1cccc(C(F)(F)F)c1Cl)[C@@H]1CCC(=O)N1C1CCCC1 [Example E95, N-{[2-chloro-3-(trifluoromethyl)phenyl]methyl}-1-cyclopentyl-5-oxoprolinamide] | > 4.7
CCC(C)N1C(=O)CC[C@H]1C(=O)NCc1cccc(C(F)(F)F)c1Cl (stereo partly drawn) [Example E99, N-{[2-chloro-3-(trifluoromethyl)phenyl]methyl}-1-(1-methylpropyl)-5-oxoprolinamide] | > 4.7
CC(C)(C)CN1C(=O)CC[C@H]1C(=O)NCc1cccc(C(F)(F)F)c1Cl [Example E100, N-{[2-chloro-3-(trifluoromethyl)phenyl]methyl}-1-(2,2-dimethylpropyl)-5-oxoprolinamide] | > 4.7
O=C(NCc1cccc(C(F)(F)F)c1Cl)[C@@H]1CCC(=O)N1Cc1ccccc1 [Example E101, N-{[2-chloro-3-(trifluoromethyl)phenyl]methyl}-5-oxo-1-(phenylmethyl)prolinamide] | > 4.7
CCN1C(=O)CC[C@H]1C(=O)NCc1cccc(C(F)(F)F)c1F [Example E103, 1-ethyl-N-{[2-fluoro-3-(trifluoromethyl)phenyl]methyl}-5-oxoprolinamide] | > 4.7
CCN1C(=O)CC[C@H]1C(=O)NCc1ccccc1C#N [Example E104, N-[(2-cyanophenyl)methyl]-1-ethyl-5-oxoprolinamide] | > 4.7
CCN1C(=O)CC[C@H]1C(=O)NCc1cccc(C(F)(F)F)c1C#N [Example E105, N-{[2-cyano-3-(trifluoromethyl)phenyl]methyl}-1-ethyl-5-oxoprolinamide] | > 4.7
CCN1C(=O)CC[C@H]1C(=O)NCc1cccc2ccccc12 [Example E106, 1-ethyl-N-(1-naphthalenylmethyl)-5-oxoprolinamide] | > 4.7
CCN1C(=O)CC[C@H]1C(=O)NCc1ccc(C(F)(F)F)cc1 [Example E107, 1-ethyl-5-oxo-N-{[4-(trifluoromethyl)phenyl]methyl}prolinamide] | > 4.7
CN1C(=O)CC[C@H]1C(=O)NCc1cccc2ccccc12 [Example E110, 1-methyl-N-(1-naphthalenylmethyl)-5-oxoprolinamide] | > 4.7
CN1C(=O)CC[C@H]1C(=O)NCc1ccc(F)c(C(F)(F)F)c1Cl [Example E111, N-{[2-chloro-4-fluoro-3-(trifluoromethyl)phenyl]methyl}-1-methyl-5-oxoprolinamide] | > 4.7
O=C(NCc1cccc(C(F)(F)F)c1Cl)[C@@H]1CCC(=O)N1C1CCC1 [Example E112, N-{[2-chloro-3-(trifluoromethyl)phenyl]methyl}-1-cyclobutyl-5-oxoprolinamide] | > 4.7

Structure (SMILES) | pIC50 values in the FLIPR Ca Assay (blocking BzATP responses)
Cc1c(Cl)cccc1CNC(=O)[C@@H]1CCC(=O)N1C1CCC1 [Example E113, N-[(3-chloro-2-methylphenyl)methyl]-1-cyclobutyl-5-oxoprolinamide] | > 4.7
O=C(NCc1ccc(Cl)cc1Cl)[C@@H]1CCC(=O)N1C1CCC1 [Example E114, 1-cyclobutyl-N-[(2,4-dichlorophenyl)methyl]-5-oxoprolinamide] | > 4.7
O=C(NCc1ccc(F)c(F)c1Cl)[C@@H]1CCC(=O)N1C1CCC1 [Example E115, N-[(2-chloro-3,4-difluorophenyl)methyl]-1-cyclobutyl-5-oxoprolinamide] | > 4.7
O=C(NCc1cccc(Cl)c1Cl)[C@@H]1CCC(=O)N1C1CCC1 [Example E116, 1-cyclobutyl-N-[(2,3-dichlorophenyl)methyl]-5-oxoprolinamide] | > 4.7
Cc1c(CNC(=O)[C@@H]2CCC(=O)N2C2CCC2)cccc1C(F)(F)F [Example E117, 1-cyclobutyl-N-{[2-methyl-3-(trifluoromethyl)phenyl]methyl}-5-oxoprolinamide] | > 4.7
O=C(NCc1cccc(C(F)(F)F)c1Cl)[C@@H]1CCC(=O)N1Cc1ccccn1 [Example E119, N-{[2-chloro-3-(trifluoromethyl)phenyl]methyl}-5-oxo-1-(2-pyridinylmethyl)prolinamide] | > 4.7
O=C(NCc1cccc(C(F)(F)F)c1Cl)[C@@H]1CCC(=O)N1Cc1cccnc1 [Example E120, N-{[2-chloro-3-(trifluoromethyl)phenyl]methyl}-5-oxo-1-(3-pyridinylmethyl)prolinamide] | > 4.7
O=C(NCc1ccc(Cl)cc1Cl)[C@@H]1CCC(=O)N1Cc1cccnc1 [Example E121, N-[(2,4-dichlorophenyl)methyl]-5-oxo-1-(3-pyridinylmethyl)prolinamide] | > 4.7
C[C@@]1(C(=O)NCc2ccc(Cl)cc2Cl)CCC(=O)N1C1CC1 [Example E122, 1-cyclopropyl-N-[(2,4-dichlorophenyl)methyl]-2-methyl-5-oxoprolinamide] | > 4.7
CCN1C(=O)CCC1(C)C(=O)NCc1ccc(Cl)cc1Cl (stereo not drawn) [Example E123] | > 4.7
CC1(C(=O)NCc2ccc(Cl)cc2Cl)CCC(=O)N1C1CCC1 (stereo not drawn) [Example E124] | > 4.7
CC(C)N1C(=O)CCC1(C)C(=O)NCc1ccc(Cl)cc1Cl (stereo not drawn) [Example E125] | > 4.7
CN1C(=O)CCC1(C)C(=O)NCc1ccc(Cl)cc1Cl (stereo not drawn) [Example E126] | > 4.7
CN1C(=O)CC(C)(C)[C@H]1C(=O)NCc1ccc(Cl)cc1Cl [Example E127, N-[(2,4-dichlorophenyl)methyl]-1,3,3-trimethyl-5-oxoprolinamide] | > 4.7
CN1C(=O)CC(C)(C)[C@H]1C(=O)NCc1cccc(C(F)(F)F)c1Cl [Example E128, N-{[2-chloro-3-(trifluoromethyl)phenyl]methyl}-1,3,3-trimethyl-5-oxoprolinamide] | > 4.7
CC1CC(=O)N(C)[C@@H]1C(=O)NCc1cccc(C(F)(F)F)c1Cl (stereo partly drawn) [Example E129, N-{[2-chloro-3-(trifluoromethyl)phenyl]methyl}-1,3-dimethyl-5-oxoprolinamide] | > 4.7
CCN1C(=O)C(C)(C)C[C@H]1C(=O)NCc1ccc(F)cc1Cl [Example E130, N-[(2-chloro-4-fluorophenyl)methyl]-1-ethyl-4,4-dimethyl-5-oxoprolinamide] | > 4.7
CCN1C(=O)C(C)(C)C[C@H]1C(=O)NCc1cccc(C(F)(F)F)c1Cl [Example E131, N-{[2-chloro-3-(trifluoromethyl)phenyl]methyl}-1-ethyl-4,4-dimethyl-5-oxoprolinamide] | > 4.7
CCN1C(=O)C(C)(C)C[C@H]1C(=O)NCc1ccc(F)c(F)c1Cl [Example E132, N-[(2-chloro-3,4-difluorophenyl)methyl]-1-ethyl-4,4-dimethyl-5-oxoprolinamide] | > 4.7
